This experiment has as its target T1, RARα ligand-binding domain (RAR LBD) (human, UniProt P10276-1 176-421).
T1 sequence: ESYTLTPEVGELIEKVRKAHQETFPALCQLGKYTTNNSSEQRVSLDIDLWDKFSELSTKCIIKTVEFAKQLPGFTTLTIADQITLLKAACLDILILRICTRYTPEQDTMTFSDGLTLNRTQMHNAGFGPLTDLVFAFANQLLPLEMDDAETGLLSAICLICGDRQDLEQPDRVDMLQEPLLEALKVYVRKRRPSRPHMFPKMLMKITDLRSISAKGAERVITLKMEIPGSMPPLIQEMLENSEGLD
As to the kind of experiment: fluorescence polarisation.

No constants are given. Whether binding was seen depends on the method and setting. Some entries that bind do so weakly or less than the wild type.

CTSLKEKHKILHRLLQDSS (Alexa Fluor 488 C5 maleimide on the additional cysteine) [TIF2 NR2 peptide with additional cysteine (…), Alexa Fluor 488 labelled]: the binding result is reported as “binds”.

The record behind these values is doi:10.1101/2020.10.28.359091 (bioRxiv, 2020).
